{"source": "patent US20030051262A1", "about": "“Animal models for neurodegenerative disease” (priority 1999, published 2003)", "key": {"[1]": {"test_system": "medial septum/vertical limb of the diagonal band (S/DB)", "experiment": "Delayed non-matching to sample (DNMS) T-maze task after injection into S/DB", "assay_type": "in vivo, rat", "conditions": "2 μl of 33 mM into S/DB", "source_text": "Wistar rats (175-200 g) were received from the suppliers (Harlan UK) and acclimated to the laboratory for three weeks before being trained on a delayed non-matching to sample (DNMS) task on an elevated wooden T-maze. In this task they are mildly food deprived and receive food pellets with enhanced flavour and nutritional content as rewards.\nThe DNMS task capitalises on the rat's innate tendency to alternate which cross arm of the T-maze it runs along; this derives from its normal foraging behaviour, where returning to a place from which it has recently eaten all the food is unlikely to pay dividends.\nEach rat is placed at the start of the stem of the T-maze and allowed to run to retrieve a food pellet at the end of one cross arm. Access to the other cross arm is blocked. This block is then removed and the rat returned to the start. Normal rats choose to go to the opposite arm to that recently visited on this free choice part of the trial. After being allowed to consume their reward (if a correct choice was made) they are returned to their home cage and their cagemate is then tested in the same way. Typically a squad of ten rats is run in a “round robin’ fashion, so up to fifteen minutes intervenes between one trial and the next. Normal rats excel at this task once initial training (chiefly to familiarise them with the new smells on the maze and the elevated position off the floor) is complete.\nThe rats in the present experiment were given forty trials on the T-maze, then divided into groups matched for performance (all were above 90% correct). They were returned to unlimited food for a few days before undergoing surgery under Avertin anaesthesia.\n(§1) The experimental group (n=6 rats) received an injection of AChE peptide into the medial septum/vertical limb of the diagonal band (S/DB). Control rats (n=6 rats) received an equal amount of the vehicle, water, in the same way, while another group (n=5 rats) received an injection of the reference neurotoxin NMDA at an equivalent dose to that of AChE peptide (2 μl of 33 mM). Each injection was given slowly over 15 minutes through a 34 gauge stainless steel injection needle coupled by polyethylene tubing to a 10 μl Hamilton syringe. Co-ordinates used on the stereotaxic instrument (Kopf) were 0.7 mm anterior to bregma, 1.0 mm lateral to midline and 6.5 mm from skull surface at bregma. The incisor bar was set at −0.5 mm for all rats, resulting in approximately a level skull surface between the bregma and lambda sutures. The arm of the stereotaxic instrument was angled at 10 degrees to vertical to avoid damage to the sagittal sinus.\nPost-operatively the rats were weighed every day. Approximately two weeks after operation they were again food restricted and tested for performance on the T-maze. […]"}, "[2]": {"test_system": "medial septum/vertical limb of the diagonal band (S/DB)", "experiment": "Locomotor activity cages after injection into S/DB", "assay_type": "in vivo, rat", "conditions": "2 μl of 33 mM into S/DB, two successive days", "method": "as §1\nAfter completion of T-maze testing rats were returned to a free feeding regimen before being tested on two successive days in standard locomotor activity cages. Each cage was equipped with two infrared beams to detect movement."}, "[3]": {"test_system": "neurons of the substantia nigra", "conditions": "slices of guinea pig midbrain; cited from earlier work"}, "[4]": {"test_system": "substantia nigra", "conditions": "low dose via cannula into one substantia nigra, systemic amphetamine; cited from earlier work"}}, "note": "Part of at least one peptide drawing is inferred or uncertain, most often the ends. Peptide text beside a SMILES is read from it.", "data": [{"smiles": "CSCC[C@H](NC(=O)[C@H](Cc1ccc(O)cc1)NC(=O)[C@H](CO)NC(=O)[C@H](CO)NC(=O)[C@H](Cc1c[nH]c2ccccc12)NC(=O)[C@H](CCCNC(=N)N)NC(=O)[C@H](Cc1c[nH]cn1)NC(=O)[C@H](Cc1ccccc1)NC(=O)[C@H](CCC(=O)O)NC(=O)[C@H](C)N)C(=O)N[C@H](C(=O)N[C@@H](Cc1c[nH]cn1)C(=O)N[C@@H](Cc1c[nH]c2ccccc12)C(=O)N[C@@H](CCCCN)C(=O)O)C(C)C", "note": "[AChE peptide, AEFHRWSSYMVHWK] (H-AEFHRWSSYMVHWK-OH)", "values": [{"measurement": "T-maze deficit, first block of ten trials", "setting": "[1]; about two weeks post-operatively", "result": "twice the deficit seen in the NMDA group"}, {"measurement": "T-maze performance in subsequent trials", "setting": "[1]; after first block of ten trials", "result": "remained low"}, {"measurement": "T-maze performance with 45 second delay between sample and choice", "setting": "[1]; delay about 45 s", "result": "significantly greater than both"}, {"measurement": "T-maze performance, twenty massed trials", "setting": "[1]; massed trials", "result": "continued to be poor"}, {"measurement": "locomotor activity (ANOVA, group effect)", "setting": "[2]", "result": "more active than the controls"}, {"measurement": "modulation of induced Ca2+ flux into neurons", "setting": "[3]", "result": "capable of modulating induced Ca^2+ flux"}, {"measurement": "behaviour after low-dose infusion plus amphetamine", "setting": "[4]", "result": "behavioural disturbance"}]}]}
